For some of these results: The expression values are mRNA levels of the gene; the protein chain is shown to identify it.
Tests used:
Set-up in all cases: species or system human
[1] = system: FFPE tissue samples from prostate cancer; assay: Expression profiling of prostate neoantigens in FFPE prostate cancer samples (Fluidigm Biomark HD)
[2] = system: panel of normal tissues, PBMCs obtained from healthy subjects, cell lines; assay: Expression profiling of prostate neoantigens in normal tissues, PBMCs and cell lines (Fluidigm Biomark HD)
[3] = system: Frozen prostate cancer tissues; assay: Prevalence of neoantigens in frozen prostate cancer tissues (n = 11); details: Table 22

B1: VPFRELKNVSVLEGLRQGRLGGPCSCHCPRPSQARLTPVDVAGPFLCLGDPGLFPPVKSSI (peptide, listed as Homo sapiens)
chain: VPFRELKNVSVLEGLRQGRLGGPCSCHCPRPSQARLTPVDVAGPFLCLGDPGLFPPVKSSI
notes: CPNE7 alternative splicing
[1]; FFPE prostate cancer tissue samples
  qPCR Relative Average Ct: 11.2
[1]; about 90 FFPE prostate cancer tissue samples
  qPCR % Positive FFPE: 52.2%
[2]
  qPCR Normal Tissue Expression: Mammary
[3]
  Frozen prostate cancer tissues* (n = 11): 0.0
